Measurements: doi:10.1101/2021.12.08.471779
Numbering of substitutions follows the chain as printed. Results are given in words; binding and its absence hold for the method and conditions named. In cells and extracts the contact can be indirect. Some binding calls cover weakened binding; strength is not graded here.

Amino acid sequences for entries named in this document (tags omitted). A change or cut given only in a name is not applied to a line headed by its entry.
UniProt P05825, whole entry, looked up, stated change not applied: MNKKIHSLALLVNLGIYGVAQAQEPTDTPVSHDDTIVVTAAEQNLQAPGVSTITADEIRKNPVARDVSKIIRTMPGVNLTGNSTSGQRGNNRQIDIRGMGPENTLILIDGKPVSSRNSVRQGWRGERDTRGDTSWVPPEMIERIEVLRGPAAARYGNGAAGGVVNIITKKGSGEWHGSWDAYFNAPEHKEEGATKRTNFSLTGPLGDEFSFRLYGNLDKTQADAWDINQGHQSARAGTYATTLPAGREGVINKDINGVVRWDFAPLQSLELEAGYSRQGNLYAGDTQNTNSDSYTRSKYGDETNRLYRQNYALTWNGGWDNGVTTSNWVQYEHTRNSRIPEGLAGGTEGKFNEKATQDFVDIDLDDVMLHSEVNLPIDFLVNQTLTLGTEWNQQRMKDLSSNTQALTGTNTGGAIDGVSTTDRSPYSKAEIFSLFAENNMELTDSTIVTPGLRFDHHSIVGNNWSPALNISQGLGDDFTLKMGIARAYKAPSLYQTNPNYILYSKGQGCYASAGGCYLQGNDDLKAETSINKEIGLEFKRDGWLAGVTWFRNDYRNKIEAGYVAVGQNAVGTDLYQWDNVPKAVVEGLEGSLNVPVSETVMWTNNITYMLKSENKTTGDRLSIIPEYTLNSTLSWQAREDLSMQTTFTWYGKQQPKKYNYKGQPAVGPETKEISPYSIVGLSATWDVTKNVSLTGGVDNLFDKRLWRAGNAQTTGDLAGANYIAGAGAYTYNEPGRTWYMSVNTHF
UniProt P02929, whole entry, looked up, stated change not applied: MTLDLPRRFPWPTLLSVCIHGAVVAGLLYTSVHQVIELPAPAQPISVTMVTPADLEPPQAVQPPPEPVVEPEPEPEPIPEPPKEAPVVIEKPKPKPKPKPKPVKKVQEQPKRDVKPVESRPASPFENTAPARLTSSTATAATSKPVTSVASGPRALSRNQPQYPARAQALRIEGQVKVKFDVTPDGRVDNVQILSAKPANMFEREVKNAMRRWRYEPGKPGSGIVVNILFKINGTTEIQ

Assays:
Assay in all cases: cross-linking
[1] = molecular target: T1, FepA T13C (Escherichia coli K-12) (UniProt P05825)
T1 sequence: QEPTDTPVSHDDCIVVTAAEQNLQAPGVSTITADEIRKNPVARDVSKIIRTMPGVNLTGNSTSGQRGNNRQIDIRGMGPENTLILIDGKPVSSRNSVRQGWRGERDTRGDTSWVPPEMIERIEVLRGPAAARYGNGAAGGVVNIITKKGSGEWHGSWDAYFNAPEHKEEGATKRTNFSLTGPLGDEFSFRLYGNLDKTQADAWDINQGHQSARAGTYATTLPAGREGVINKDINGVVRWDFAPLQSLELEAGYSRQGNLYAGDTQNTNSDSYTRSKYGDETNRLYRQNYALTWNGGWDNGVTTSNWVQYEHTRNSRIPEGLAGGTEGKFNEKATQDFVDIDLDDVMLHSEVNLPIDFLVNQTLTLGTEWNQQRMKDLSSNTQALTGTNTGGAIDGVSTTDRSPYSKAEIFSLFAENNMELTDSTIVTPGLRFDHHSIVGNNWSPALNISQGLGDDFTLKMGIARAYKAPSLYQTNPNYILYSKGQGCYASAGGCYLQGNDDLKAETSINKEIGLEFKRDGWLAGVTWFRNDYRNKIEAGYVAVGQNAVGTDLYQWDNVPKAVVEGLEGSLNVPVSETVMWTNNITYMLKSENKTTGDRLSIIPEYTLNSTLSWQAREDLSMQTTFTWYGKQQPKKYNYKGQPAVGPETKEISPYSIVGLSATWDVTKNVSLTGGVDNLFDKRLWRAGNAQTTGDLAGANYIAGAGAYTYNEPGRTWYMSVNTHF

[2] = molecular target: T2, FepA G54C (Escherichia coli K-12) (UniProt P05825)
T2 sequence: T1 sequence with C13T, G54C

[3] = molecular target: T3, FepA S112C (Escherichia coli K-12) (UniProt P05825)
T3 sequence: T1 sequence with C13T, S112C

Substance	binding [1]	binding [2]	binding [3]
TonB C18G H20A R212C (from UniProt P02929 1-239)	no binding	–	–
TonB C18G H20A R204C (from UniProt P02929 1-239)	no binding	–	–
TonB C18G Q160C (from UniProt P02929 1-239)	binds	binds weakly	no binding
TonB C18G H20A A209C (from UniProt P02929 1-239)	no binding	–	–
TonB C18G R214C (from UniProt P02929 1-239)	–	no binding	no binding
TonB C18G R212C (from UniProt P02929 1-239)	binds	no binding	no binding
TonB C18G H20A N208C (from UniProt P02929 1-239)	no binding	–	–
TonB C18G V206C (from UniProt P02929 1-239)	no binding	no binding	no binding
TonB C18G H20A V206C (from UniProt P02929 1-239)	no binding	–	–
TonB C18G R204C (from UniProt P02929 1-239)	binds	no binding	no binding

The remaining lines, values ahead:

binding [1]	binding [2]	binding [3]	Substance
no binding	no binding	no binding	TonB C18G A209C (from UniProt P02929 1-239)
binds	no binding	no binding	TonB C18G N208C (from UniProt P02929 1-239)
–	no binding	no binding	TonB C18G M201C (from UniProt P02929 1-239)
binds	–	–	TonB C18G H20A Q160C (from UniProt P02929 1-239)
